The record followed here is paper PMC7862700.

Chains of the proteins cited; added tags and fusions are not shown. Lines headed by an entry give the natural chain unless they say otherwise; changes in a name come on top.
UniProt P32519: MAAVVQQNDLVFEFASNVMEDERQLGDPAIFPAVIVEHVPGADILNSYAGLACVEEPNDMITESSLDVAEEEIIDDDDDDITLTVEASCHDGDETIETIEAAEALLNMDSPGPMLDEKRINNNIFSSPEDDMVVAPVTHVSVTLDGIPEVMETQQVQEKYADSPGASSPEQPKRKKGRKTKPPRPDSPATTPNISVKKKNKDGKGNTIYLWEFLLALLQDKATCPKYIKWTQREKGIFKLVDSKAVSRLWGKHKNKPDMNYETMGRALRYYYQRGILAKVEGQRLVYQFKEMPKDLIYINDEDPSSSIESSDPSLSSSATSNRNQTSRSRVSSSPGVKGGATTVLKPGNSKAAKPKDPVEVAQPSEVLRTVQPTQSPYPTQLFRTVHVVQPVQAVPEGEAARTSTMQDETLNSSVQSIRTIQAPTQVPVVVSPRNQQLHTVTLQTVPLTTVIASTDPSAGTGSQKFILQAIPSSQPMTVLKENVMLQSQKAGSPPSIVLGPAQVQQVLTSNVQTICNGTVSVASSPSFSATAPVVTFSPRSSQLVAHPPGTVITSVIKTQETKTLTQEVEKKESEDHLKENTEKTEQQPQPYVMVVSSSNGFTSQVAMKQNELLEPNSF
UniProt P50549: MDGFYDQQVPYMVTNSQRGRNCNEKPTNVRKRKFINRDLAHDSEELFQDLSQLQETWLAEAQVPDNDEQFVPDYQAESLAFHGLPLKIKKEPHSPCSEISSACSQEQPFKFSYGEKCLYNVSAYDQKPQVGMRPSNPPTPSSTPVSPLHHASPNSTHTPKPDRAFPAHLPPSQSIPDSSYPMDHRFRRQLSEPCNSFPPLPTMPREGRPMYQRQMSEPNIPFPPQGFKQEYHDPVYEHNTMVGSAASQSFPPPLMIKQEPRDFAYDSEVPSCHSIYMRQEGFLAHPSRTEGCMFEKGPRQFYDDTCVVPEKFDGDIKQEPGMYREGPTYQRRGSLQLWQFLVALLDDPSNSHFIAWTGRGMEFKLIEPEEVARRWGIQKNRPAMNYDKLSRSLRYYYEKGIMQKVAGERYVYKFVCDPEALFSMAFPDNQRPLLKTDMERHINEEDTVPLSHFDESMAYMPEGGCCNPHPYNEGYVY

The entries are a selection whose mix differs from that of the whole data set. For part of these data: At the low end of the ranking, values are background and their order means little. The list shows a part of the results. For part of these data: The exact form of the protein is not confirmed.

Common to all, as to experiment: DAPPL (digital affinity profiling via proximity ligation, sequencing)
Common to all, as to settings: 10 mM Tris-HCl pH 7.5, 50 mM NaCl, 1 mM DTT, 4% glycerol, room temperature, 30 min; GST-TFs on glutathione beads, 16-mer random dsDNA library, 0.1% …; high values mean tight binding; double strand, one strand shown; scale: fold enrichment (6-mer frequency, TF over GST control)

The target of one assay is T1, ERG (UniProt P11308).
T1 sequence: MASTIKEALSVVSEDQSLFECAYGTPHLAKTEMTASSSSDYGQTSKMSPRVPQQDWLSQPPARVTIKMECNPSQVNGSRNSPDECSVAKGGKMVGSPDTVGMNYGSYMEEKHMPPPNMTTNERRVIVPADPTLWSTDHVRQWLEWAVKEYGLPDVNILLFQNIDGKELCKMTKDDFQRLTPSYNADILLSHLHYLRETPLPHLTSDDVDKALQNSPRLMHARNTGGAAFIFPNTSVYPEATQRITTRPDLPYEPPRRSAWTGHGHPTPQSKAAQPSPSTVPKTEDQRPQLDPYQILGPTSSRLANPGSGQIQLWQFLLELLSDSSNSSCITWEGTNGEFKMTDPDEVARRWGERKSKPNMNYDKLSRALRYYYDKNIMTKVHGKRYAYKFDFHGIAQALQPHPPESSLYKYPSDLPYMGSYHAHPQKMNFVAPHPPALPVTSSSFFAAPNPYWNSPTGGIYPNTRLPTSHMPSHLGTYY

In the next assay the target is ELF1 (UniProt P32519).
The next assay has as its target T2, ELK4 (UniProt P28324-2).
T2 sequence: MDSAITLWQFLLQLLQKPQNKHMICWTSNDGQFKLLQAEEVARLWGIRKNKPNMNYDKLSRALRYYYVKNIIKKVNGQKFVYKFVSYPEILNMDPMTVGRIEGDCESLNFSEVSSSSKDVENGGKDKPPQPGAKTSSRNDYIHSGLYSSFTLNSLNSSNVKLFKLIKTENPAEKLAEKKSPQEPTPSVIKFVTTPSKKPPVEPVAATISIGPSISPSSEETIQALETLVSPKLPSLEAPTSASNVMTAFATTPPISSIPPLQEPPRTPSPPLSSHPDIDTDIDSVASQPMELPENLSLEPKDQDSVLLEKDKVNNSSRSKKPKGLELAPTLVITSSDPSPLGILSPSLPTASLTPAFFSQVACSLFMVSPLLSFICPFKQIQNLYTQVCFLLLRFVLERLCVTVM

The target of a further assay is T3, ETV4 (UniProt P43268).
T3 sequence: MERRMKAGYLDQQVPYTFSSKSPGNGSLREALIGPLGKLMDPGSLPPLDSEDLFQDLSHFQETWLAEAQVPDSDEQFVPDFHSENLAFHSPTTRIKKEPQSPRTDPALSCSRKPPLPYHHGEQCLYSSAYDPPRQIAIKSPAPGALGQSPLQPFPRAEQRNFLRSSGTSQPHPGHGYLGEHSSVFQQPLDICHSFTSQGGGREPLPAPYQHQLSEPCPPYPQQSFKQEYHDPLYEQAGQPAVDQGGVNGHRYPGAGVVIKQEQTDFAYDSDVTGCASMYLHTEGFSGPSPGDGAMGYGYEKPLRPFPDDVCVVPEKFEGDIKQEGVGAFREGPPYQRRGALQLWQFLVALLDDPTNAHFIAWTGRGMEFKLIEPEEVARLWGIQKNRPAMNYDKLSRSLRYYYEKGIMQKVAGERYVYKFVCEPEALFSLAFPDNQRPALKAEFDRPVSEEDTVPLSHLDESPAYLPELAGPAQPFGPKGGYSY

The target of a further assay is ETV1 (UniProt P50549).
The next assay deals with T4, ERF (UniProt P50548).
T4 sequence: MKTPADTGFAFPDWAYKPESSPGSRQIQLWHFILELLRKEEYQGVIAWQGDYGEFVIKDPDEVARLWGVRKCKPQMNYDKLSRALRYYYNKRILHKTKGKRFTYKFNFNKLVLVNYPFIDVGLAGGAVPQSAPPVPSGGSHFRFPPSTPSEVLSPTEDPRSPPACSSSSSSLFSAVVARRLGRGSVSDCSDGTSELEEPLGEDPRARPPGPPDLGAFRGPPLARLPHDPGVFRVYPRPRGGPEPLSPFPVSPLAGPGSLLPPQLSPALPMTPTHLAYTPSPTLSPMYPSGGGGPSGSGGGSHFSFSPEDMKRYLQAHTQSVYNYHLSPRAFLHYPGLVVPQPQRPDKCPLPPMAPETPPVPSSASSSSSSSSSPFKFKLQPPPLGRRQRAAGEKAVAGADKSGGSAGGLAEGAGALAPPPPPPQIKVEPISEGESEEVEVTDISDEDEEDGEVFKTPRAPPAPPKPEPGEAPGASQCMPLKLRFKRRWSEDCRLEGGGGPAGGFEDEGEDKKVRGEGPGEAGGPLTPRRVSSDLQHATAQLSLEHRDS

On to GGGAAT, for which the binding signal turned out to be 0.828 with ERG; 0.839 with ELF1; 0.774 with ELK4; 0.816 with ETV4; 0.801 with ETV1; 0.846 with ERF.
In the case of GGCAAC, the binding signal in the assay with ERG was determined as 0.873; in the assay with ELF1, 0.912; in the assay with ELK4 it was 0.86; with ETV4 it was 0.913; with ETV1, 0.874; with ERF it was 0.909.
Regarding GCGGTG, the binding signal turned out to be 0.496 in the assay with ERG; 0.517 with ELF1; 0.552 with ELK4; 0.495 with ETV4; 0.549 in the assay with ETV1; 0.546 with ERF.
On to CGCCGT, for which the binding signal is 0.951 in the assay with ERG; 0.971 with ELF1; 0.968 with ELK4; 0.926 in the assay with ETV4; 0.98 with ETV1; 0.966 with ERF.
As for AAGCCA, the binding signal with ERG came to 0.885; with ELF1 it was 0.879; with ELK4, 1.02; in the assay with ETV4, 0.843; in the assay with ETV1, 0.92; in the assay with ERF it was 0.848.
GGGTAC: the binding signal in the assay with ERG turned out to be 0.883; with ELF1, 0.97; in the assay with ELK4 it was 0.957; in the assay with ETV4 it was 0.951; with ETV1 it was 0.91; in the assay with ERF, 0.981.
Regarding ACGGGA, the binding signal with ERG came to 0.574; in the assay with ELF1, 0.501; in the assay with ELK4, 0.543; with ETV4 it was 0.525; in the assay with ETV1 it was 0.524; with ERF it was 0.491.
Regarding GGCGGT, the binding signal is 0.414 in the assay with ERG; 0.408 in the assay with ELF1; 0.378 in the assay with ELK4; 0.39 with ETV4; 0.391 with ETV1; 0.427 with ERF.
Regarding AGTCAG, the binding signal was 0.481 in the assay with ERG; 0.481 with ELF1; 0.428 with ELK4; 0.464 in the assay with ETV4; 0.54 with ETV1; 0.465 in the assay with ERF.
AGTGGG: the binding signal is 0.598 in the assay with ERG; 0.609 with ELF1; 0.577 with ELK4; 0.548 with ETV4; 0.644 in the assay with ETV1; 0.558 with ERF.
Take ACTGAG: the binding signal amounted to 0.745 with ERG; 0.814 in the assay with ELF1; 0.863 in the assay with ELK4; 0.766 with ETV4; 0.769 with ETV1; 0.769 with ERF.
Consider AGGTAC, for which the binding signal with ERG is 0.918; in the assay with ELF1, 0.95; with ELK4 it was 0.966; with ETV4 it was 0.935; with ETV1 it was 0.88; with ERF, 0.904.
On to CATGTC, for which the binding signal in the assay with ERG was 0.837; with ELF1, 0.833; with ELK4, 0.811; in the assay with ETV4 it was 0.837; with ETV1, 0.833; in the assay with ERF, 0.875.
Consider ATAGGA, for which the binding signal with ERG was 0.899; with ELF1, 0.758; with ELK4 it was 0.787; with ETV4, 0.822; with ETV1, 0.795; in the assay with ERF, 0.807.
Regarding GAGGGA, the binding signal with ERG is 0.516; with ELF1 it was 0.483; in the assay with ELK4 it was 0.484; with ETV4, 0.479; in the assay with ETV1, 0.511; with ERF it was 0.516.
As to GCGCGG, the binding signal with ERG stood at 0.836; with ELF1 it was 0.828; in the assay with ELK4, 0.905; in the assay with ETV4 it was 0.857; with ETV1, 0.835; with ERF, 0.773.
For the sequence AGACCG, the binding signal with ERG stood at 0.481; with ELF1 it was 0.481; with ELK4, 0.411; in the assay with ETV4, 0.499; with ETV1, 0.503; in the assay with ERF, 0.5.
For GGGGCC, the binding signal with ERG came out at 0.602; with ELF1, 0.565; in the assay with ELK4 it was 0.608; with ETV4, 0.583; with ETV1 it was 0.544; with ERF it was 0.584.
On to GAGATG, for which the binding signal with ERG was found to be 0.712; with ELF1, 0.708; with ELK4, 0.696; in the assay with ETV4, 0.68; with ETV1 it was 0.633; with ERF it was 0.748.
As for GCGAGG, the binding signal with ERG was found to be 0.673; with ELF1, 0.629; with ELK4 it was 0.573; with ETV4, 0.591; with ETV1 it was 0.629; in the assay with ERF, 0.618.
For GAGCAC, the binding signal amounted to 0.737 with ERG; 0.718 with ELF1; 0.758 with ELK4; 0.739 with ETV4; 0.693 in the assay with ETV1; 0.789 with ERF.
On to GCGCAG, for which the binding signal is 0.822 with ERG; 0.819 in the assay with ELF1; 0.911 in the assay with ELK4; 0.855 in the assay with ETV4; 0.812 in the assay with ETV1; 0.848 in the assay with ERF.
For the sequence CGGTCG, the binding signal with ERG is 0.414; with ELF1, 0.36; with ELK4, 0.384; with ETV4, 0.389; in the assay with ETV1, 0.409; with ERF, 0.416.
With TCGCAG, the binding signal with ERG came to 0.918; with ELF1, 0.856; in the assay with ELK4, 0.934; in the assay with ETV4, 0.887; in the assay with ETV1 it was 0.97; with ERF, 0.849.
CAGTCG: the binding signal turned out to be 0.191 in the assay with ERG; 0.18 in the assay with ELF1; 0.177 with ELK4; 0.164 with ETV4; 0.167 with ETV1; 0.188 with ERF.
Regarding GAAGGC, the binding signal was 0.965 with ERG; 0.936 with ELF1; 0.954 in the assay with ELK4; 0.931 with ETV4; 0.912 with ETV1; 0.852 with ERF.
Regarding CAATCG, the binding signal with ERG worked out at 0.885; with ELF1, 0.96; with ELK4, 0.937; with ETV4, 0.931; with ETV1 it was 0.891; with ERF, 0.849.
For the sequence GGCGCC, the binding signal was determined as 0.72 with ERG; 0.72 with ELF1; 0.834 with ELK4; 0.786 in the assay with ETV4; 0.711 with ETV1; 0.711 with ERF.
Turning to GCAAGA, the binding signal with ERG worked out at 0.828; with ELF1 it was 0.795; in the assay with ELK4, 0.777; in the assay with ETV4 it was 0.778; with ETV1, 0.818; with ERF, 0.867.
Regarding CAGTGA, the binding signal in the assay with ERG amounted to 0.356; in the assay with ELF1, 0.344; in the assay with ELK4, 0.377; in the assay with ETV4, 0.353; with ETV1, 0.352; in the assay with ERF, 0.367.
